Reference: PubChem BioAssay AID652272 (Drosophila RNAi Screening Center, 2013)

Screen: 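Genome-wide knock-down search for components of Hedgehog signalling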 (primary screen)
Cells: Drosophila clone 8 (Cl8) cells
Reagents: long dsRNA against Drosophila genes
Read-out: 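Plate reader light from a firefly reporter under a ptc promoter fragment that responds to Hedgehog, with Renilla light as transfection reference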
Direction: firefly Hh reporter signal: higher = more ptc reporter light; Renilla reference signal: higher = more Renilla control light
Call rule: 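Called a hit if the two-replicate mean z-score lies below -2 or above +3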
Calls: active = hit: reporter lowered or raised; inactive = not a hit
In all, the deposit lists about 21,000 reagents; shown is a random part of those with a known target gene and a result. In the full data, 503 (2.4%) got an active call. 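Raw plate light values, not normalised; calls rest on replicate z-scores that were not deposited; hits include reporter decreases as well as increases.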 Names joined by + are all predicted targets of the reagent. The record does not give: the amount of reagent, the time to read-out.

Target gene,dsRNA,"firefly Hh reporter signal, replicate 1","firefly Hh reporter signal, replicate 2","firefly Hh reporter signal, replicate 3","Renilla reference signal, replicate 1","Renilla reference signal, replicate 2",outcome
CG7326,DRSC20037,54080,1.56e5,,1172,7744,inactive
CG6287,DRSC02947,74253,51042,,3181,2080,inactive
CG7579,DRSC10885,82534,,,2826,2050,inactive
ymp,DRSC13720,51687,2.88e5,,12432,7136,inactive
ymp,DRSC14482,5.96e5,1.02e5,,28395,2762,inactive
CG14718,DRSC14941,1.67e5,1.23e5,,7065,4935,inactive
CG1792,DRSC15290,84775,1.43e5,,2896,5936,inactive
CG42538,DRSC09412,2.47e5,,,5741,,inactive
CG10041,DRSC14179,82899,82616,,2629,2176,inactive
RpL37-1,DRSC20149,3.64e5,1.19e5,2.65e5,5254,4406,active
drn + CG43675,DRSC15147,1.32e5,1.07e5,,4352,2901,inactive
Iswi,DRSC07446,66684,49876,,1675,3000,inactive
CG42449,DRSC18084,65917,5.01e5,2.29e5,2323,2891,inactive
gammaTub23C,DRSC00820,78404,78068,,4089,3776,inactive
Hr3,DRSC06118,36036,12583,,1223,1766,active
Hr3,DRSC07441,73476,43584,,3314,1984,inactive
CG33296,DRSC00998,4.76e5,1.82e5,,22087,7638,inactive
Mob4,DRSC04993,49523,30216,,2571,1478,inactive
Nf-YA,DRSC10385,40029,16339,22167,3405,2025,inactive
CarT,DRSC03196,1.81e5,85490,,6792,3241,inactive
Non2,DRSC08272,1.36e5,85351,,5762,2576,inactive
CG7514,DRSC08597,33619,54320,,4108,3747,inactive
MFS18,DRSC00452,1.17e5,76742,,6128,3324,inactive
CG34454,DRSC07864,1.36e5,2.59e5,,3867,10664,inactive
CR10102,DRSC05963,70938,54752,,1937,4280,inactive
CG7523,DRSC16254,1.07e5,1.12e5,,4609,3577,inactive
CG6006,DRSC13137,48301,2.04e5,,11572,3240,inactive
CG6006,DRSC15946,1.11e5,83357,,4185,3152,inactive
snRNA:U1:95Cc + CG43285 (retired record),DRSC13640,52777,1.65e5,,12064,3642,inactive
tap,DRSC11402,1.28e5,,,2186,3549,inactive
mIF3,DRSC06290,97317,45526,,2500,4296,inactive
Nacalpha,DRSC07477,64153,41959,,3428,1738,inactive
CG13727,DRSC10055,1.95e5,,,2869,5725,inactive
CG17600,DRSC20638,1.41e5,3.02e5,,4642,13480,inactive
CG17600,DRSC20640,57594,2.41e5,,2336,11088,inactive
CG14710,DRSC14933,1.16e5,77008,,4869,2976,inactive
PhKgamma,DRSC20268,96182,75868,,2369,1952,inactive
Mccc1,DRSC15417,1.27e5,79354,,3170,2489,inactive
rux,DRSC18829,72816,65063,,1908,1590,inactive
Spn42Dd,DRSC05024,1.37e5,82115,,3098,6844,inactive
Cdc7,DRSC18428,1.54e5,3.74e5,,6045,14097,inactive
Cdc7,DRSC18429,75911,1.63e5,,2836,7432,inactive
ksr,DRSC12379,71874,95494,,2680,2512,inactive
CG17048,DRSC06649,1.43e5,1.27e5,,4042,7995,inactive
CG3104,DRSC00567,1.83e5,1.34e5,,4259,3165,inactive
Met75Ca + Met75Cb,DRSC09549,3.40e5,,,6832,,inactive
Met75Ca + Met75Cb,DRSC11221,1.90e5,,,5068,4843,inactive
CG34002,DRSC09512,6.19e5,3.19e5,1.32e5,5501,7906,inactive
CG15040,DRSC19616,5.71e5,1.22e5,,4253,4253,inactive

Entries listed so far with an active call (2):
Target gene,dsRNA,"firefly Hh reporter signal, replicate 1","firefly Hh reporter signal, replicate 2","firefly Hh reporter signal, replicate 3","Renilla reference signal, replicate 1","Renilla reference signal, replicate 2",outcome
RpL37-1,DRSC20149,3.64e5,1.19e5,2.65e5,5254,4406,active
Hr3,DRSC06118,36036,12583,,1223,1766,active

The results go on:
Target gene,dsRNA,"firefly Hh reporter signal, replicate 1","firefly Hh reporter signal, replicate 2","firefly Hh reporter signal, replicate 3","Renilla reference signal, replicate 1","Renilla reference signal, replicate 2",outcome
Jon66Ci,DRSC10772,44604,40186,,4780,3527,inactive
SmE,DRSC02680,39264,34945,,1778,3991,active
CG13361,DRSC17896,96881,2.21e5,,4115,8708,inactive
CG13579,DRSC04215,70148,69085,,1258,5746,inactive
CG6984,DRSC07013,1.20e5,1.15e5,,4373,4144,inactive
daed,DRSC00299,12201,56786,,852,2123,inactive
Drep1,DRSC07527,83315,46181,,1664,3213,inactive
CG32246,DRSC08115,89753,1.31e5,,1731,5680,inactive
CG3841,DRSC02730,1.28e5,56122,,3366,5319,inactive
CG5770,DRSC06954,1.73e5,1.04e5,,6704,4342,inactive
CG31751,DRSC02464,76192,48385,,1645,4372,inactive
CG31751,DRSC02465,68163,54792,,1638,4123,inactive
sli,DRSC07684,54261,62282,,754,3884,inactive
Sfp38D,DRSC01810,1.36e5,2.46e5,,4016,11750,inactive
CG14014,DRSC02345,1.21e5,65104,,2327,7704,inactive
pps,DRSC16057,98377,1.27e5,,2023,1801,inactive
CG8237,DRSC07119,82311,50597,,3085,1925,inactive
CG10654,DRSC09767,42009,53448,69591,5113,4929,inactive
a10,DRSC11319,1.05e5,,,5570,3197,inactive
CG33506,DRSC05981,1.41e5,94036,,5429,1274,inactive
CG43117,DRSC13767,47001,1.71e5,,12285,3712,inactive
CR10991,DRSC12156,1.48e5,1.83e5,,5696,4845,inactive
rdgA,DRSC17863,60425,2.91e5,,2636,12029,inactive
rdgA,DRSC18036,90356,3.09e5,,3082,12951,inactive
rdgA,DRSC18827,1.01e5,92013,,2528,2240,inactive
